{
  "sequences": {"note": "Sequences of proteins named here, by UniProt entry; tags and fusion partners are left off. A change or cut given only in a name is not applied to a line headed by its entry.", "UniProt P04062": "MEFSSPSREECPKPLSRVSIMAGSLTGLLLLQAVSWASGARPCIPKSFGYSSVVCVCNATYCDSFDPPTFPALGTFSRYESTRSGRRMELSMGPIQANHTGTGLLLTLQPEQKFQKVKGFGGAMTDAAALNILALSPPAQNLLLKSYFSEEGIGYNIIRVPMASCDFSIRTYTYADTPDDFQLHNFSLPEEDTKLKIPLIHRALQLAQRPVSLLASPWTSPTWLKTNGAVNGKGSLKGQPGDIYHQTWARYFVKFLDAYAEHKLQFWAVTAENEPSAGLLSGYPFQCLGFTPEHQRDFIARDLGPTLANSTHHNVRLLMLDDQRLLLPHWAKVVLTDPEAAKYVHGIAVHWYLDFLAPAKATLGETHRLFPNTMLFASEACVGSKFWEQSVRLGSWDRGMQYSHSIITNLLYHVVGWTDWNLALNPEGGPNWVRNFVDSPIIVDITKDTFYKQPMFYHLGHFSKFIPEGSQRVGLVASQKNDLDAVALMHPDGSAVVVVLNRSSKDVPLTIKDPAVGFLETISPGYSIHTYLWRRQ"},
  "source": "PubChem BioAssay AID2595",
  "about": "(National Center for Advancing Translational Sciences (NCATS), 2010)",
  "note": "Inconclusive results, whose numbers are uncertain, are shown with a selection of clear calls. Potencies beside an inconclusive call are fits to weak or partial responses and may not hold up. Calls of active or inactive are those of the source. The call rests on the fitted dose curve; in most records, active means well fitted inhibition curve with a large enough effect; inconclusive means small, poorly fitted or top-dose-only effect, or effect the other way; inactive means flat fitted curve, though single readings scatter.",
  "data": [
    {"target": "Lysosomal acid glucosylceramidase (Homo sapiens) (UniProt P04062)", "test": "qHTS Assay for Inhibitors and Activators of N370S glucocerebrosidase as a Potential Chaperone Treatment of Gaucher Disease: Purified Non-mutant Glucocerebrosidase", "settings": "purified wildtype GC, 4MU-beta-glucoside fluorescence, 40 min; series mostly up to 76.9 µM", "description": "NIH Chemical Genomics Center [NCGC] NIH Molecular Libraries Probe Production Centers Network [MLPCN] MLPCN Grant: MH086442-01 Assay Submitter (PI): Wei Zheng Glucocerebrosidase (GC) catalyzes the hydrolysis of beta-glucocerebroside to glucose and ceramide in lysosomes. Mutations in the glucocerebrosidase gene result in Gaucher disease, an autosomal recessive lysosomal storage disorder. Many of the mutations encountered in patients with Gaucher disease are missense alterations that may cause misfolding, decreased stability and/or mistrafficking of this lysosomal protein. […] These inhibitors include iminosugar analogs and three non-iminosugar inhibitors identified from a previous HTS of 62,000 compounds with the wild type recombinant enzyme. However, the enhancement of enzyme activity by the chaperone action of an enzyme inhibitor must be balanced against the direct inhibition of the enzyme. An enzyme activator could also function as a chaperone by binding to the enzyme and helping to correct its misfolding and mistrafficking. While activators for GC have not yet been identified, they may have better therapeutic potential than inhibitors. Therefore the discovery and development of chemical activators may provide a new strategy for the chaperone therapy. We have optimized a new assay using N370S mutant GC derived from the spleen of a Gaucher patient. […] In addition, the MLPCN compound library has expanded, which increases the chance of finding new and better probes. This assay characterizes compound activity using purified wildtype enzyme instead of mutant enzyme from tissue homogenate. Compound activity differences may be due to the absence of endogenous cofactors found in tissue homogenate as well as inherent differences in enzyme stability and catalytic activity between the N370S and wildtype forms of the protein.\nNCGC Assay Protocol Summary: This is a fluorogenic enzyme assay with 4-methylumbelliferyl-beta-D-glucopyranoside as the substrate and purified wildtype glucocerebrosidase as the enzyme preparation. Upon the hydrolysis of this fluorogenic substrate, the resulting product, […] which can be detected by a standard fluorescence plate reader. Data were normalized to the controls for basal activity (without enzyme) and 100% activity (with enzyme). The AC50 values were determined from concentration-response data modeled with the standard Hill equation. Assay buffer: 50 mM citric acid (titrated with potassium phosphate to pH 5.0), 100 mM potassium chloride, 10 mM sodium chloride, 1 mM magnesium chloride, 0.01% Tween-20. 1536-well assay protocol: (1) Add 2 ul/well of glucocerebrosidase enzyme solution (5 nM final) (2) Add 23 nL compounds in DMSO solution. The final titration was 0.5 nM to 58 uM. (3) Add 2 ul of substrate (1 mM final) (4) Incubate at 37C for 40 min. (5) Add 2 ul stop solution (1M NaOH and 1M Glycine mixture, pH 10) (6) Detect the assay plate in a ViewLux plate reader (PerkinElmer) with Ex=365 nm and Em=440nm. Keywords: Glucocerebrosidase, beta-glucosidase, Gaucher Disease, pharmacological chaperone, chaperone therapy, high throughput screening, glucocerebrosidase inhibitor, MLSMR, MLSCN, NIH Roadmap, qHTS and NCGC", "values": [
      {"smiles": "O=S(=O)(c1ccc(F)cc1)N1CCN(c2nc(-c3cccs3)nc3cc(Cl)ccc23)CC1", "Potency": "inactive"},
      {"smiles": "O=S(=O)(c1ccc(Cl)cc1)N1CCN(c2nc(-c3ccc(F)cc3)nc3cc(Cl)ccc23)CC1", "Potency": "inactive"},
      {"smiles": "CC(C)(C)c1ccc(S(=O)(=O)N2CCN(c3nc(-c4cccs4)nc4ccccc34)CC2)cc1", "Potency": "inconclusive: 12.6 µM [inhibitor, full curve]"},
      {"smiles": "N#Cc1ccc(S(=O)(=O)N2CCN(c3nc(-c4cccs4)nc4ccccc34)CC2)cc1", "Potency": "inconclusive: 5.01 µM [inhibitor, full curve]"},
      {"smiles": "Cc1ccccc1S(=O)(=O)N1CCN(c2nc(-c3cccs3)nc3ccccc23)CC1", "Potency": "inconclusive: 1.58 µM [inhibitor, full curve]"},
      {"smiles": "COc1ccccc1C(=O)COC(=O)c1ccccc1OCC(=O)Nc1ccc(SC(F)F)cc1", "Potency": "inconclusive: 10 µM [activator, full curve]"},
      {"smiles": "Cc1cccc(S(=O)(=O)N2CCN(c3nc(-c4cccs4)nc4ccccc34)CC2)c1", "Potency": "inconclusive: 2.82 µM [inhibitor, full curve]"},
      {"smiles": "CCC(C)c1ccc(NC(=O)c2cnn3c(C(F)F)cc(C)nc23)cc1", "note": "(stereo not given)", "Potency": "inconclusive: 12.6 µM [activator, full curve]"},
      {"smiles": "O=S(=O)(c1ccc(F)cc1)N1CCN(c2nc(-c3ccc(F)cc3)nc3cc(Cl)ccc23)CC1", "Potency": "inactive"},
      {"smiles": "O=C(COc1ccccc1C(=O)c1cnn(-c2ccccc2)c1)Nc1ccccc1", "Potency": "inconclusive: 5.01 µM [activator, full curve]"},
      {"smiles": "O=S(=O)(c1ccc(Cl)cc1)N1CCN(c2nc(-c3cccc(Br)c3)nc3ccccc23)CC1", "Potency": "inactive"},
      {"smiles": "O=S(=O)(c1cccc(C(F)(F)F)c1)N1CCN(c2nc(-c3cccs3)nc3cc(Cl)ccc23)CC1", "Potency": "inactive"},
      {"smiles": "O=C(Nc1cnn(Cc2ccc(F)cc2)c1)c1cnn2c(C(F)F)cc(-c3ccccc3)nc12", "Potency": "inconclusive: 3.55 µM [activator, full curve]"},
      {"smiles": "COc1ccc(-c2nc(N3CCN(S(=O)(=O)c4ccc(C)cc4)CC3)c3ccccc3n2)cc1", "Potency": "inconclusive: 39.8 µM [inhibitor, partial curve]"},
      {"smiles": "Cc1cc(C)n2ncc(C(=O)Nc3ccc(Cl)c(Cl)c3)c2n1", "Potency": "inconclusive: 14.1 µM [activator, partial curve]"},
      {"smiles": "COc1ccc(-c2nc(N3CCN(S(=O)(=O)c4ccccc4)CC3)c3ccccc3n2)cc1", "Potency": "inconclusive: 20 µM [inhibitor, partial curve]"},
      {"smiles": "O=S(=O)(c1ccc(Cl)cc1)N1CCN(c2nc(Nc3cc(Cl)ccc3O)nc3ccccc23)CC1", "Potency": "active: 1.26 µM"},
      {"smiles": "Cc1ccc(NC(=O)COc2ccccc2C(=O)Nc2ccccc2)cc1Cl", "Potency": "inconclusive: 7.08 µM [activator, full curve]"},
      {"smiles": "Cc1ccc(-c2nc(N3CCN(S(=O)(=O)c4ccc(F)cc4)CC3)c3ccc(Cl)cc3n2)cc1", "Potency": "inactive"},
      {"smiles": "Cc1ccc(S(=O)(=O)N2CCN(c3nc(-c4ccc(F)cc4)nc4cc(Cl)ccc34)CC2)cc1", "Potency": "inactive"}
    ]}
  ]
}
